Measured values published in PubChem BioAssay AID504467 (National Center for Advancing Translational Sciences (NCATS), 2011).
Screen size: about 330,000 compounds; about 7,700 (2.3%) were called active. The inconclusive results got no clear call from the source; some entries with a clear call stand among them for comparison. The call rests on the fitted dose curve; in most records, active means well fitted inhibition curve with a large enough effect; inconclusive means small, poorly fitted or top-dose-only effect, or effect the other way; inactive means flat fitted curve, though single readings scatter. A potency beside an inconclusive call is a rough fit, not a confirmed value.

Assay: qHTS screen for small molecules that inhibit ELG1-dependent DNA repair in human embryonic kidney (HEK293T) cells expressing luciferase-tagged ELG1; further: nearly all actives have a fitted effect of over 55% in size
Details: HEK293T ELG1-luciferase reporter, luminescence, 16 h, DNA damage induced by 5-fluorouridine; activity change, negative = inhibition: at 46.1 µM (top of the series)
Procedure, shortened: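 HEK293T cells expressing luciferase-tagged ELG1 (2,000/well) received 5-Fluorouridine plus compound or DMSO for 16 hr at 37 °C. Luciferase was read by ONE-Glo luminescence after 30 min at room temperature.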
On the % scale 0 is the no-effect control and ±100 the full control effect; potency means the concentration at half of the fitted maximal effect.

SMILES | activity change, negative = inhibition | Potency
COc1ccc2c3c1OC1C(=O)CC[C@@]4(O)[C@@H](C2)N(CC2CC2)CC[C@]314 (some centres undefined) | inactive: 14.5% | 
COc1ccc2c3c1OC1C(=O)CC[C@@]4(O)[C@@H](C2)N(C)CC[C@]314 (some centres undefined) |  | inconclusive: 29.1 µM [activator, single point]
CCCC[C@@H](C)C[C@@H](C)C(=O)N(C)[C@@H](CC(C)C)C(=O)N[C@H](C(=O)N(C)[C@H](C(=O)N1C[C@@H](O)C[C@H]1C(=O)N1C(=O)C=C[C@@H]1C)C(C)C)C(C)OC(C)=O (some centres undefined) |  | inconclusive: 16.4 µM [inhibitor, single point]
O=C(c1ccc(C(F)(F)F)cc1)C1CCCN(Cc2ccncc2)C1 (centres undefined) | inactive: 14.2% | 
O=C1NC(=O)C(=Cc2ccccc2OCCOc2ccc([N+](=O)[O-])cc2)C(=O)N1 | inactive: 14.1% | 
CCC(=NCc1ccco1)c1c(O)n(-c2ccccc2)c(=O)[nH]c1=O |  | inconclusive: 23.1 µM [inhibitor, partial curve, poor fit]
COCCCNC(=O)c1c(NC(=O)c2ccco2)n(Cc2ccccc2)c2nc3ccccc3nc12 | inactive: -9.96% | 
O=C1NC(=O)N(CCc2ccc(F)cc2)C(=O)/C1=C/c1cccs1 | inactive: -13.4% | 
O=C(C(Cc1ccccc1)NS(=O)(=O)c1ccc(F)cc1)N1CCC2(CC1)OCCO2 (centres undefined) |  | inconclusive: 32.6 µM [inhibitor, single point]
COC(=O)C1=C(c2ccc(OC)c(OC)c2)C[C@@H]2CC[C@H]1N2C(=O)NCCNC(C)=O | inactive: 24.7% | 
COC(=O)C1=C(C)NC(C)=C(C(=O)OC)C1c1ccccc1[N+](=O)[O-] |  | active: 10.3 µM
CC(C)c1oc(=O)cc2c1[C@@H](O)[C@H]1OC(=O)[C@@]3(C)C[C@@H](O)[C@@H](O)[C@@]2(C)C13 (some centres undefined) |  | inconclusive: 23.1 µM [inhibitor, single point]
Cc1ccc(NC(=S)NCC2CCCO2)cc1 (centres undefined) |  | inconclusive: 23.1 µM [activator, partial curve]
COc1cc(C(C#N)N2CCOCC2)ccc1O (centres undefined) |  | inconclusive: 1.16 µM [inhibitor, single point]
COc1ccc2c(c1)[nH]c1c(C)nccc12 |  | active: 2 µM
CCCCn1c(N)c(C(=O)NCc2cccs2)c2nc3ccccc3nc21 |  | active: 23.1 µM
CC(C)n1c(=O)c(C=Nc2ccc(S(N)(=O)=O)cc2)c(O)n(Cc2ccco2)c1=O | inactive: 1.56% | 
O=C(C1CCN(S(=O)(=O)N2CCOCC2)CC1)N1CCC2(CC1)OCCO2 | inactive: 9.69% | 
CC(=O)OC1CC[C@]2(C#N)[C@H]3CC[C@]4(C)[C@H](C5C=CC(=O)O5)CCC4(O)C3CCC2(O)C1 (some centres undefined) |  | active: 14.6 µM

Shown tab-delimited: part of the list above.
SMILES	activity change, negative = inhibition	Potency
COc1cc(C(C#N)N2CCOCC2)ccc1O (centres undefined)		inconclusive: 1.16 µM [inhibitor, single point]
COc1ccc2c(c1)[nH]c1c(C)nccc12		active: 2 µM
CCCCn1c(N)c(C(=O)NCc2cccs2)c2nc3ccccc3nc21		active: 23.1 µM
CC(C)n1c(=O)c(C=Nc2ccc(S(N)(=O)=O)cc2)c(O)n(Cc2ccco2)c1=O	inactive: 1.56%	
O=C(C1CCN(S(=O)(=O)N2CCOCC2)CC1)N1CCC2(CC1)OCCO2	inactive: 9.69%	
